The supplement of paper PMC8426693
Some of the results follow.

Key:
Assay in all cases: NMR binding call after quantification (hit when 2 of 3 NMR criteria are met) (binary (1 = binding, 0 = not binding)); higher = binding
Settings in all cases: RNA concentration 10 µM; fragment concentration 200 µM; 293 K
SARS-CoV-2 3'-UTR RNA = system: SARS-CoV-2 3'-UTR RNA
SARS-CoV-2 3_SL1 RNA = system: SARS-CoV-2 3_SL1 RNA
SARS-CoV-2 3_SL1+2 RNA = system: SARS-CoV-2 3_SL1+2 RNA
SARS-CoV-2 3_SL2 RNA = system: SARS-CoV-2 3_SL2 RNA
SARS-CoV-2 3_SL3base RNA = system: SARS-CoV-2 3_SL3base RNA
SARS-CoV-2 3_s2m RNA = system: SARS-CoV-2 3_s2m RNA

Measured: NMR binding call

Cc1nsc(N2CCOC(C)C2C)n1 (stereo not given)
0: all assays above

Cc1ncc(CN2CCNCC2)s1
0: all assays above

O=C(c1ccc2c(c1)OCO2)N1CCCCCC1
0: all assays above

COc1ccc(CN2CCOCC2)cc1OC
0: all assays above

CCn1ccc(CNC)n1
0: all assays above

CS(=O)(=O)Cc1nc2ccccc2[nH]1
0: all assays above

NC(=O)C1CCN(CCc2ccccc2)CC1
0: all assays above

COc1ccc(NC2=NCCN2)cc1
0: all assays above

CC1CN(C)CCC1Nc1cnn(C)c1 (stereo not given)
0: all assays above

CC(O)CNCc1c(Cl)cccc1Cl (stereo not given)
0: all assays above

CC(=O)NC1CNc2ccccc2C1 (stereo not given)
0: all assays above

CC(C)C(=O)Nc1ccc(N2CCCCC2)cc1
0: all assays above

O=C(c1c(F)cccc1F)N1CCCC1
0: all assays above

CC(=O)N1Cc2ccc(N)cc2C1
0: all assays above

Cl.Cn1cc(C(N)=O)c(C2CCCNC2)n1 (stereo not given)
0: all assays above

CNC(C)c1ccc(F)cc1.Cl (stereo not given)
0: all assays above

CC(CO)N(C)c1ncc(Cl)cn1 (stereo not given)
0: all assays above

O=C(OCc1ccc(Cl)cc1)c1cccnc1
1: SARS-CoV-2 3'-UTR RNA
0: all other assays above

CCc1ccc(C(=O)NCc2cnn(C)c2)s1
0: all assays above

O=C(O)COCc1ccccc1
0: all assays above

Cc1cc(C(=O)NCC2CCOC2)on1 (stereo not given)
0: all assays above

Cl.O=C(CC(F)(F)F)N1CCNCC1
0: all assays above

CNC(=O)CN(C)C1CCCCCC1
0: all assays above

CC(C)NCc1ccc(N(C)C)cc1
0: all assays above

Cc1cc(C(=O)Nc2ccc3[nH]ccc3c2)no1
1: SARS-CoV-2 3'-UTR RNA | SARS-CoV-2 3_SL3base RNA
0: all other assays above

CC(=O)N1CCCC(C(N)=O)C1 (stereo not given)
0: all assays above

CC(C)C(N)C(=O)N1CCOCC1 (stereo not given)
0: all assays above

CCNC(=O)N1CCN(C(C)=O)CC1
0: all assays above

CS(=O)(=O)Nc1ccc(C(N)=O)cc1
0: all assays above

Cc1ncc(CNc2cncc(F)c2)s1
0: all assays above

CCOc1ccccc1N1CCNCC1.Cl
0: all assays above

CCOC(=O)Nc1cccc(Cl)c1
0: all assays above

CN1CCN(C(=O)Nc2ccc(F)cc2)CC1
0: all assays above

Cc1cc(N(C)C2CC(O)C2)nc(C)n1 (stereo not given)
0: all assays above

c1csc(-c2ncc[nH]2)c1
0: all assays above

O=C(c1csnn1)N1CCOCC1
0: all assays above

CN(C)Cc1ccc(C(=O)O)o1.Cl
0: all assays above

CC(=O)NCC1CNCCO1 (stereo not given)
0: all assays above

c1ccc2c(CN3CCCCCC3)c[nH]c2c1
0: all assays above

O=C(NCC1CC1)Nc1ccc2c(c1)CCO2
0: all assays above

CCNc1ccc(C)nn1
0: all assays above

CN(C)C(=O)N1CCOCC12CCOC2 (stereo not given)
0: all assays above

Cc1ccc(Nc2ncnc3[nH]ncc23)cc1
1: SARS-CoV-2 3'-UTR RNA
0: all other assays above

O=C(CCCc1ccccc1)N1CCOCC1
0: all assays above

CCOC(=O)c1cc(-c2ccc(C)cc2)no1
1: SARS-CoV-2 3'-UTR RNA
0: all other assays above

CNCC(=O)Nc1cc(C)ccn1
1: SARS-CoV-2 3'-UTR RNA | SARS-CoV-2 3_SL3base RNA
0: all other assays above

CNC1CCCN(c2ccccc2)C1=O (stereo not given)
0: all assays above

OCC1CCN(c2ncccn2)CC1
0: all assays above

CC(Oc1ccccc1F)C(=O)O (stereo not given)
0: all assays above

Oc1ccccc1-c1nc(-c2ccccc2)no1
0: all assays above

c1cnc(N2CCC3(CCOC3)C2)cn1 (stereo not given)
1: SARS-CoV-2 3'-UTR RNA
0: all other assays above

O=C(NCc1ccco1)NC1CCCCC1
0: all assays above

CN(C)C(=O)Nc1ccc(S(N)(=O)=O)cc1
0: all assays above

CCc1nnc(NC(=O)c2cnccn2)s1
0: all assays above

CS(=O)(=O)N1CCC(O)CC1
0: all assays above

CC(C)(CO)NC(=O)c1cccc(Cl)c1
0: all assays above

CN(CCO)S(=O)(=O)c1ccc(N)cc1
0: all assays above

CC(C)C(=O)N1CCN(C(C)C)CC1
0: all assays above

Cc1noc(C)c1C(=O)NCCC1=CCCCC1
0: all assays above

O=C(Cc1ccc(Cl)cc1)Nc1ncccn1
0: all assays above

Cc1cc(C)nc(NC(=O)Nc2ccccc2)c1
0: all assays above

COCC(=O)Nc1cccc(NC(C)=O)c1
0: all assays above

Cc1nsc(N2CCCNCC2)n1
0: all assays above

O=C(Nc1ccc(-n2cnnn2)cc1)C1CCC1
0: all assays above

COC(=O)C1CCN(C(=O)NC(C)(C)C)CC1
0: all assays above

CC1C(O)CCCN1Cc1ccccc1 (stereo not given)
0: all assays above

O=C(COc1ccccc1)N1CCCC1
0: all assays above

CCn1nccc1CNC.Cl.Cl
0: all assays above

NC(=O)N1CCN(c2ccc(F)cc2)CC1
0: all assays above

N#Cc1ccc(NC(=O)c2cccs2)cc1
1: SARS-CoV-2 3'-UTR RNA | SARS-CoV-2 3_SL3base RNA
0: all other assays above

c1cnc(NC2CCCCCC2)nc1
0: all assays above

C1CN(Cc2nc(C3CC3)no2)CCO1
0: all assays above

CNC(=O)c1ccc(S(N)(=O)=O)cc1
0: all assays above

CC(=O)Nc1nnc(SC(C)C)s1
0: all assays above

COC(=O)c1sccc1NC(=O)C1CC1
0: all assays above

CC(=O)Nc1cccc(C(=O)O)c1C
0: all assays above

CC(C)NC(=O)c1ccc2ccccc2n1
1: SARS-CoV-2 3'-UTR RNA
0: all other assays above

Cc1ncsc1C(=O)N1CCCNCC1.Cl.Cl
0: all assays above

CCOC(=O)c1ccoc1
0: all assays above

Gathered by group: the entries above with an NH in an aromatic ring
CS(=O)(=O)Cc1nc2ccccc2[nH]1
0: all assays above

Cc1cc(C(=O)Nc2ccc3[nH]ccc3c2)no1
1: SARS-CoV-2 3'-UTR RNA | SARS-CoV-2 3_SL3base RNA
0: all other assays above

c1csc(-c2ncc[nH]2)c1
0: all assays above

c1ccc2c(CN3CCCCCC3)c[nH]c2c1
0: all assays above

Cc1ccc(Nc2ncnc3[nH]ncc23)cc1
1: SARS-CoV-2 3'-UTR RNA
0: all other assays above

Remaining list, next part:

Fc1ccccc1CNc1cn[nH]c1
0: all assays above

CC(C)C(=O)NCC1CCCNC1 (stereo not given)
0: all assays above

O=C(NCc1ccccc1)c1cccc(F)c1
0: all assays above

NC(=S)Nc1ccc(OC(F)(F)F)cc1
0: all assays above

CC(=O)N1CCN(c2ccc(Cl)cc2)CC1
0: all assays above

COc1ccc2sc(N)nc2c1
1: SARS-CoV-2 3'-UTR RNA | SARS-CoV-2 3_SL3base RNA
0: all other assays above

CCC(CO)NC(=O)Nc1ccc(Cl)cc1 (stereo not given)
0: all assays above

CCn1cc(NC(=O)C2CCC2)cn1
0: all assays above

COc1ccc(CNC(=O)c2csnn2)cc1
0: all assays above

CC(C)Oc1ccc(-c2csc(N)n2)cc1
0: all assays above

CN1CCN(S(=O)(=O)N(C)C)CC1
0: all assays above

Cl.O=C(O)CCN1CCCCC1
0: all assays above

CCOc1ccc(CC(=O)O)cc1
0: all assays above

NC(=O)C1CCN(C(=O)C2CCCCC2)CC1
0: all assays above

Cc1cc(C(=O)Nc2ccn(C)n2)on1
0: all assays above

COCc1cc(C(N)=O)no1
0: all assays above

CC1CCC(C(=O)N2CCC=C(F)C2)O1 (stereo not given)
0: all assays above

CNCc1ccncc1
0: all assays above

Oc1ncc(NC2CCCCC2)c(O)n1
0: all assays above

CS(=O)(=O)Nc1ccc(-c2ccccc2)cc1
0: all assays above

CCOC(=O)Nc1sccc1C(N)=O
0: all assays above

CS(=O)(=O)CC(O)c1ccccc1 (stereo not given)
0: all assays above

CN(C)C(=O)c1ccc(F)cc1Br
0: all assays above

Cc1cccc(N2CCNC(C)C2)n1 (stereo not given)
0: all assays above

CC1CCCN(C(=O)CO)C1 (stereo not given)
0: all assays above

CCOc1ccc(NC(=O)NC(C)(C)C)cc1
0: all assays above

CCNC(=O)Nc1cc(C)on1
0: all assays above

Cc1ccc(NC(=O)C2CCCO2)nc1 (stereo not given)
0: all assays above

CC(C)(C)N1CC(O)C1
0: all assays above

O=C(NCc1nc2ccccc2[nH]1)c1ccco1
0: all assays above

O=C(O)Cc1ccc(-c2ccccc2)cc1
0: all assays above

CC(C)C(=O)N1CCC(Cc2ccccc2)CC1
0: all assays above

Fc1cccc(CNCc2ccco2)c1
0: all assays above

CC(=O)NC1CCC(N)CC1 (stereo not given)
0: all assays above

CC(C)(CO)NC(=O)Nc1ccc(Cl)cc1
0: all assays above

CCCn1nnnc1NC(=O)c1ccco1
0: all assays above

CCNC(=O)CN1CC(C)OCC1C (stereo not given)
0: all assays above

CC1=NN(c2ccccc2)C(=O)C1
0: all assays above

COC(=O)N1CCN(c2ccc(F)cc2)CC1
0: all assays above

CC1CCCCN1CCN (stereo not given)
0: all assays above

CCNC(=O)c1ccc(NS(C)(=O)=O)cc1
0: all assays above
